The test system of the test is mesencephalic neurons. As to conditions: 5 micromoles/l. The protocol:
Cortical neurons are involved in Alzheimer's disease and also in mesencephale neurons or dopaminergic neurons which are themselves involved in Parkinson's disease. (see also protocol described by Y. Mitsumotol, A. Watanabe, T. Miyauchi, F. Jimma, and T. Moriizumi in Stimulation of the regrowth of MPP+/damaged dopaminergic fibers by the treatment of mesencephalic cultures with basigin; J Neural Transm (2001) 108: 1127-1134).
The neuroprotective activity is assessed on MPP+ induced mesencephalic neuron loss with flufenazine concentration of 250 nmol/l
The cells are intoxicated by 2 micromol of MPP+ as neurotoxic during 24 h. The cell culture is then treated with 250 nm/l of flufenazine.
The percentage of mesencephalic neuronal survival obtained when intoxicated cells cultures are incubated with flufenazine is compared to cell cultures without flufenazine.

As to `Nc1nc2ccc(OC(F)(F)F)cc2s1` [Riluzole], the “reversal of MPP+ induced neuronal loss” value is “to the same extent”.
